Screening data, single-dose tests

From ChEMBL document CHEMBL3988442, “University of Dundee, Small-Polar-MMV Screening Library” (2021).

A: 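Whole-parasite assay of Trypanosoma brucei over 72 hours; the read-out is not stated. Concentration: 30 µM. Higher reads as stronger inhibition (inferred: compounds with an IC50 in retests scored well above the rest). Values scatter widely below zero; nearly all retest evidence comes from the higher of the two concentrations used. Of about 64,000 compounds tested this way, about 940 (1.5%) reached 50% or more in at least one test.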
B: 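Assay of Toxoplasma gondii numbers, read through their beta-galactosidase reporter with a colour substrate. Tested at 10 µM. Higher reads as fewer parasites (inferred from which compounds were picked for retests). About 67,000 compounds were tested under these conditions; 0.38% (about 260) showed 50% or more at least once.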
C: 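Cell assay of Leishmania donovani living inside macrophages; the read-out is not stated. Tested at 30 µM. Higher reads as stronger inhibition (inferred: compounds with an IC50 in retests scored well above the rest). Of about 69,000 compounds tested this way, about 1,000 (1.5%) reached 50% or more in at least one test.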

Values are the deposited “Percent Effect”, in %. The record does not define 0% and 100%; most values in the screen are far below 50% and negative numbers occur (in some assays of this library far below -100). This is an unselected part of the compounds tested.

With COc1ccc2nc(O)c(CN(C)Cc3ncc[nH]3)cc2c1 the screen gave B: -16%; C: 2.608%. Cc1nc(C)n(CC2CCCN(CCOc3ccccc3C#N)C2)n1 (stereo unspecified) read A: -14.8%; B: -10.19%; C: -8.042%. With CC(=O)N1CCC(NCc2cccnc2N(C)Cc2ccccc2)CC1 the screen gave A: -21.09%; C: 27.87%. Cc1ccc(-c2cc(C(=O)NC(C)C(=O)N3CCCCC3)on2)cc1 (stereo unspecified) gave A: 35.41%; B: 9.703%; C: 22.45%. With O=C(O)C(F)(F)F.O=C(O)C(F)(F)F.[H][C@@]12CN(Cc3ccoc3)CCO[C@]1([H])CN(Cc1ccco1)C2 the screen gave A: -14.62%; B: 7.967%; C: 24.89%. For CC(NC(=O)N(C)CCCOc1ccccc1)c1nncn1C (stereo unspecified) the result was A: 7.124%; B: -11.11%; C: 14.33%.

O=C(C1CCC1)N1CCCC1c1nnc2n1CCCCC2 (stereo unspecified) gave A: -30.34%; B: -9.554%; C: 3.191%. For CCc1nc(C(=O)N2CC(C(C)C)Nc3ccccc32)c[nH]1 (stereo unspecified) the result was A: -0.7291%; B: -0.7801%; C: 17.04%. O=C(O)C(F)(F)F.O=C(O)C(F)(F)F.[H][C@@]12CCN(Cc3cnn(C)c3)C[C@]1([H])[C@@H](CNc1ncccn1)OC2 gave A: -15.41%; B: 8.761%; C: 11.65%. Result for CC(C)CC(=O)N1CCN(Cc2cc(-c3ccncc3)nn2C)CC1 was A: -8.367%; B: -24.01%; C: -2.219%. With CC(NC(=O)NCCN1CCCCCC1=O)c1ccc(Cl)s1 (stereo unspecified) the screen gave A: -5.243%; B: -3.842%; C: 21.66%. With Cc1ccccc1C1(CNC(=O)N2CCC(CC(N)=O)CC2)CC1 the screen gave A: 14.35%; B: 0.2674%; C: 12.76%.

With O=C(CCN1C(=O)CC2(CCCC2)C1=O)NCCc1nccs1 the screen gave A: 1.449%; B: -21.74%; C: 20.04%. O=C(CC1CCC2(CC1)CCN(Cc1cccnc1)CC2)N1CC=CC1.O=C(O)C(F)(F)F.O=C(O)C(F)(F)F read A: -37.26%; B: 7.798%; C: 16.34%. Result for COc1cc(Br)c(CNc2ccn(CCC(N)=O)n2)cc1OC was A: -60.7%; B: 0.6534%; C: 10.48%. Result for O=C(c1nnn(-c2ccc(Cl)cc2)n1)N(CCO)Cc1ccccc1 was A: -12.53%; B: -12.75%; C: -5.56%. CN(CCc1ccccn1)C(=O)c1cccs1.Cl gave A: -41.89%; B: 0.7671%; C: 7.006%. With CCCN(CCC)C1(Cc2cc(-c3cccc(O)c3)on2)COC1 the screen gave A: -0.452%; B: -2.008%; C: 13.55%.

O=c1oc2ccccc2n1CCCN1CCCC1c1ccc(O)cc1 (stereo unspecified) read A: -21.17%; B: -0.306%; C: -2.01%. With CC(=O)N1CCCN(C(=O)c2ccn(-c3cccc(Cl)c3)n2)CC1 the screen gave A: 3.499%; B: 1.482%; C: 26.19%. Result for O=C(O)C(F)(F)F.c1cnc(N2CCOC3(COCCN(Cc4cc[nH]n4)C3)C2)nc1 (stereo unspecified) was B: -1.723%; C: 28.75%. Cc1ccc(NC2CCN(C(=O)c3cccc(F)c3F)CC2)nn1 read A: -4.441%; B: -3.881%; C: 26.6%. CCC1c2cccn2CCN1S(=O)(=O)N1CCOCC1 (stereo unspecified) read A: -24.72%; B: 16.68%; C: -17.87%. Result for CCOc1c(Cl)cccc1NCc1cc(C)on1 was A: -12.74%; B: 4.586%; C: 26.17%.

CCn1ncnc1CN1CCC(CNC(=O)c2cccnc2O)C1 (stereo unspecified) read A: -1.571%; B: 11.84%; C: -28.82%. With Cc1n[nH]cc1CNC1CCN(c2cccc(C(F)(F)F)c2)CC1 the screen gave A: -4.09%; B: -16.96%; C: 8.505%. Cc1nc(CN(C)C2CCN(CC(=O)N3CCOCC3)C2)no1 (stereo unspecified) gave A: 9.904%; B: 3.554%; C: 20.29%. Cc1cc(C)n(CC2CN(Cc3noc(C4CC4)n3)CCO2)n1 (stereo unspecified) read B: 7.579%; C: 7.345%. Cc1ccc(C)c(S(=O)(=O)CCN2CCCC2Cn2cncn2)c1 (stereo unspecified) read A: -7.109%; B: 4.717%; C: 8.959%. CN(c1ncccc1CNCc1ncc[nH]1)C1CCCCC1 gave A: 10.74%; B: -3.617%; C: 14.47%.

For reference, 3 entries once more:

SMILES,A,B,C
CN(CCc1ccccn1)C(=O)c1cccs1.Cl,-41.89%,0.7671%,7.006%
Cc1nc(C)n(CC2CCCN(CCOc3ccccc3C#N)C2)n1 (stereo unspecified),-14.8%,-10.19%,-8.042%
Cc1nc(CN(C)C2CCN(CC(=O)N3CCOCC3)C2)no1 (stereo unspecified),9.904%,3.554%,20.29%